This passage reports log2 fold change results from the supplement of paper PMC10849652.

Chains of the proteins cited; added tags and fusions are not shown. Lines headed by an entry give the natural chain unless they say otherwise; changes in a name come on top.
UniProt Q8IZJ1, whole entry, looked up: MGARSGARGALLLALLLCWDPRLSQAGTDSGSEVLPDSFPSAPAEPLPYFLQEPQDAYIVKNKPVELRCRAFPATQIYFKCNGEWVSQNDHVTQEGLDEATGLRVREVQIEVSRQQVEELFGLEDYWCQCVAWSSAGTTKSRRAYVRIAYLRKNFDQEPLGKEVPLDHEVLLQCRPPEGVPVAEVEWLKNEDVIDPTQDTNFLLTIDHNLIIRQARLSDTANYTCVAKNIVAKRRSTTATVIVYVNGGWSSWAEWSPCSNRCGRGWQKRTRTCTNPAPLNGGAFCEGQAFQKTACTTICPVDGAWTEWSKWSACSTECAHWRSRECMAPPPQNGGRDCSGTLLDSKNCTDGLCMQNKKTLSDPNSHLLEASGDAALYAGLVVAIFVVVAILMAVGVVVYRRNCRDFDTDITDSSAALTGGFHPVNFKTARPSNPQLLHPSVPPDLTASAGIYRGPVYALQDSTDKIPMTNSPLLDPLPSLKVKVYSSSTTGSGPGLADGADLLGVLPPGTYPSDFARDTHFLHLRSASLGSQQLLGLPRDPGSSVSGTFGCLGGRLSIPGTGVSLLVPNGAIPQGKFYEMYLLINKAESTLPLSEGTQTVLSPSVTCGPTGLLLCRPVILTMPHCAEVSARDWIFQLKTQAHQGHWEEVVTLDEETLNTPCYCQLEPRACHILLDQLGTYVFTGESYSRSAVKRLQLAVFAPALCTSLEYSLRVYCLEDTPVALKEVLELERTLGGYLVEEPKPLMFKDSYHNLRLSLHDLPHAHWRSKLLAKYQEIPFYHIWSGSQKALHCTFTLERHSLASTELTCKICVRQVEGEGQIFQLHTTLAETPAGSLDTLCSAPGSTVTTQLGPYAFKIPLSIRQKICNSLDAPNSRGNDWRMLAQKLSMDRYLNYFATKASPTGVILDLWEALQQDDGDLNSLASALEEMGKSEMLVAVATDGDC
UniProt P13051, whole entry, looked up: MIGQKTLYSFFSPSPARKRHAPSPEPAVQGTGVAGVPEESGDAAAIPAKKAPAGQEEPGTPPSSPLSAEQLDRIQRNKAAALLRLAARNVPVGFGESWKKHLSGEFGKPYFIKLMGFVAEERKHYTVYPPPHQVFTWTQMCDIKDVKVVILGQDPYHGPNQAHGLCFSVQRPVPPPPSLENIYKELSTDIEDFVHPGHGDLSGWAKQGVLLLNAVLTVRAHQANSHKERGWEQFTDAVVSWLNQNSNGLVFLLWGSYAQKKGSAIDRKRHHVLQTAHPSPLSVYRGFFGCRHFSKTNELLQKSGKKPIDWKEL
UniProt Q70EL1: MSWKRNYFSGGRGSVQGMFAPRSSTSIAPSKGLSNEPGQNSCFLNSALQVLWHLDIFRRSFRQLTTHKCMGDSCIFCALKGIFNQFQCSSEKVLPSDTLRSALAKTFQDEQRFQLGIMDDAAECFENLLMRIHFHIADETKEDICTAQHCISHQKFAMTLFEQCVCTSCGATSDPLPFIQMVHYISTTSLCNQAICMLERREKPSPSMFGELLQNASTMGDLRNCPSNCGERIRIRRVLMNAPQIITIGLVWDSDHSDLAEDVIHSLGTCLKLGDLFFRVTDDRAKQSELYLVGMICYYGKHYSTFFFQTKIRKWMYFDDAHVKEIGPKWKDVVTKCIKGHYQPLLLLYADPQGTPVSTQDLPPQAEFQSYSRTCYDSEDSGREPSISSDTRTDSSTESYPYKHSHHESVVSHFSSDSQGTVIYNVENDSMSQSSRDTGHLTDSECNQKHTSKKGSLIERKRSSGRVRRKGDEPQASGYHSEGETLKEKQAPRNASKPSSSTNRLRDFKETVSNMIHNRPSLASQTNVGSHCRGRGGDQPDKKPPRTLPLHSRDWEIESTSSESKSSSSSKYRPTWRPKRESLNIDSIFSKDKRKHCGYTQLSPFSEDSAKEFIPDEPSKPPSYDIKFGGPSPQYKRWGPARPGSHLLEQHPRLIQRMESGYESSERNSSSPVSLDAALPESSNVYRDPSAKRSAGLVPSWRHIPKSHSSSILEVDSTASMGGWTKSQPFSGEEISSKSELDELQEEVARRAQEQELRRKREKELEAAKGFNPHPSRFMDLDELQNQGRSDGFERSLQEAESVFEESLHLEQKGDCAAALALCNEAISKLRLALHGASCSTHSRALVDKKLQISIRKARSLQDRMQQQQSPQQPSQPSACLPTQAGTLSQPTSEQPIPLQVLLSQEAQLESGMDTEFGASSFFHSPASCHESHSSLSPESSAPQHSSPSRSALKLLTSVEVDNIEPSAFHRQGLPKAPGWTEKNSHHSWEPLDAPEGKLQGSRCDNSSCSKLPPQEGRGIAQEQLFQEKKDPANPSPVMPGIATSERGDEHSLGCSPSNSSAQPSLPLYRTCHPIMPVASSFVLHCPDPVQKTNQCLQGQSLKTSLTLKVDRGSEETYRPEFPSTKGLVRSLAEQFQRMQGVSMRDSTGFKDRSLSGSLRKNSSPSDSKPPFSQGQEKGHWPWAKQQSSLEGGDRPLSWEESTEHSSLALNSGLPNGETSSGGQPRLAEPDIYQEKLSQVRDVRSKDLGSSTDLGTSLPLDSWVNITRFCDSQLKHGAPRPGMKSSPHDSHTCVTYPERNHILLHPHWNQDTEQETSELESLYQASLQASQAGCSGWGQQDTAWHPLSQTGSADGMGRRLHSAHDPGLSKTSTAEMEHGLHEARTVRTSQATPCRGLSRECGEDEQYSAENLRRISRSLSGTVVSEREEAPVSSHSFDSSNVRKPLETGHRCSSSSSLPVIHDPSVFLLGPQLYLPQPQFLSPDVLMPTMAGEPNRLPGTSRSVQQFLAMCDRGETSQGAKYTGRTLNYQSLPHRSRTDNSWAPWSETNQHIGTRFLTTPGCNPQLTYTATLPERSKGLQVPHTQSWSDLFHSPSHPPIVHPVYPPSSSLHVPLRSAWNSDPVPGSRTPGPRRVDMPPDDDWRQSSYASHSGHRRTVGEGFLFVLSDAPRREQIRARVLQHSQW
UniProt C9J7I0: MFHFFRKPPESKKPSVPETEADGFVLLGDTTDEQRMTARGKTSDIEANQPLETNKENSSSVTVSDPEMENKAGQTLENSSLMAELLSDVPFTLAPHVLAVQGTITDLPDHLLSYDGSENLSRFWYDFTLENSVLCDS
UniProt O75317, whole entry, looked up: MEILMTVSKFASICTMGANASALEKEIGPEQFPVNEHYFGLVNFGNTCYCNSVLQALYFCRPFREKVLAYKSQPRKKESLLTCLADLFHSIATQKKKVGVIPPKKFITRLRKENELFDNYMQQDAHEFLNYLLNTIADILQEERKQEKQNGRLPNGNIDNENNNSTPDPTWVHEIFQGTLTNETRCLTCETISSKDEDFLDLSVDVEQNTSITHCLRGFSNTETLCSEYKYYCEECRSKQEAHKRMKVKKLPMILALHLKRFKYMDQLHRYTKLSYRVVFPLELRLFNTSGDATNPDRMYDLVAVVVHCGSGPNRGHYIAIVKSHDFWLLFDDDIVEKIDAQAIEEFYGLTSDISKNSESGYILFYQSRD
UniProt Q9H347: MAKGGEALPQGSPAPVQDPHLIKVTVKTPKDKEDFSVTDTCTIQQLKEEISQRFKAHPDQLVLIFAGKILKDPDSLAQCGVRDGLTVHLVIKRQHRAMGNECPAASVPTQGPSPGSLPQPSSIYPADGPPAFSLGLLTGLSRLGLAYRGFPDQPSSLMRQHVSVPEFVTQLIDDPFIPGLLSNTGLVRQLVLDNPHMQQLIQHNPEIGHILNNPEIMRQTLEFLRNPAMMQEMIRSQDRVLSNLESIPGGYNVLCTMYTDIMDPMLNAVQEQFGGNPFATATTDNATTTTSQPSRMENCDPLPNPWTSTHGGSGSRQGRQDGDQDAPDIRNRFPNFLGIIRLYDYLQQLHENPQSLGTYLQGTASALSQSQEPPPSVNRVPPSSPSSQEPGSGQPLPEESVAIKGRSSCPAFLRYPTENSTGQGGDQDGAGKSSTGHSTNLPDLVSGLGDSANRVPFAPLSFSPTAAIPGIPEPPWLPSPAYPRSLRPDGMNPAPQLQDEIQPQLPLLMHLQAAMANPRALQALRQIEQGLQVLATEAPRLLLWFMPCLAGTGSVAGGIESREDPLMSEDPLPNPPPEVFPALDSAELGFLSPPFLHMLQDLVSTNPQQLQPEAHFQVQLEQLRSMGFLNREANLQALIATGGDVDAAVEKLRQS
UniProt O00124: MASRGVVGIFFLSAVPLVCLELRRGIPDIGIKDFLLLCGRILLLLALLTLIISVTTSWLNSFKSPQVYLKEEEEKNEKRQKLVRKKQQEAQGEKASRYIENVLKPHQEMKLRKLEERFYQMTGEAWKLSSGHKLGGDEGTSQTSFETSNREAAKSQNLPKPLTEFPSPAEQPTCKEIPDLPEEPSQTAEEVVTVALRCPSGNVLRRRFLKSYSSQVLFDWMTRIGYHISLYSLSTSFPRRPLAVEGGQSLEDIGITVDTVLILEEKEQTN
UniProt Q13107: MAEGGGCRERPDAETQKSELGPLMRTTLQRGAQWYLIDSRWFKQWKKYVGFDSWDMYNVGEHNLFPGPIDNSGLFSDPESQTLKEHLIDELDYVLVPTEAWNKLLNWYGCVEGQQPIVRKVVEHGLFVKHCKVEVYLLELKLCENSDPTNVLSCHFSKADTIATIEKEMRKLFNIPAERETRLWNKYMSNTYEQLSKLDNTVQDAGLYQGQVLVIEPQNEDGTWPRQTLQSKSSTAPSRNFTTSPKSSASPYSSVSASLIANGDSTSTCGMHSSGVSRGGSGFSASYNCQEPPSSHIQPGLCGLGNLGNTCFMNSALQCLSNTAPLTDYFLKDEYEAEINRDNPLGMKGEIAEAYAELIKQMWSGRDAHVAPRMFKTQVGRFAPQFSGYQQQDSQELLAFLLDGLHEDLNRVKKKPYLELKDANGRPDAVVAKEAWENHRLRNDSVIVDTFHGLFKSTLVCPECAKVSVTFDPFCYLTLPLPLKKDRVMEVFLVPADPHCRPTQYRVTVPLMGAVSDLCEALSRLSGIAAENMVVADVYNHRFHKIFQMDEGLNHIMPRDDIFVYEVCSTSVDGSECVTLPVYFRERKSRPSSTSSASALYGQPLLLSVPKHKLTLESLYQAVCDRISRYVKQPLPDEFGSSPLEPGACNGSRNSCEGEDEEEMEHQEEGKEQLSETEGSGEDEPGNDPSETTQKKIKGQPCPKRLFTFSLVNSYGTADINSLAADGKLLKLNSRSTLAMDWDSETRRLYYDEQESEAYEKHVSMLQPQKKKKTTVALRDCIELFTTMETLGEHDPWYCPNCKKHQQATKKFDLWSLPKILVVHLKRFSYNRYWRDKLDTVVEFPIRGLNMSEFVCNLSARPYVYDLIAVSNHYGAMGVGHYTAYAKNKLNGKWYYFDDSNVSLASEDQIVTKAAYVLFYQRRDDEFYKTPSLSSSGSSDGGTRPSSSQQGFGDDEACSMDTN
UniProt P51784: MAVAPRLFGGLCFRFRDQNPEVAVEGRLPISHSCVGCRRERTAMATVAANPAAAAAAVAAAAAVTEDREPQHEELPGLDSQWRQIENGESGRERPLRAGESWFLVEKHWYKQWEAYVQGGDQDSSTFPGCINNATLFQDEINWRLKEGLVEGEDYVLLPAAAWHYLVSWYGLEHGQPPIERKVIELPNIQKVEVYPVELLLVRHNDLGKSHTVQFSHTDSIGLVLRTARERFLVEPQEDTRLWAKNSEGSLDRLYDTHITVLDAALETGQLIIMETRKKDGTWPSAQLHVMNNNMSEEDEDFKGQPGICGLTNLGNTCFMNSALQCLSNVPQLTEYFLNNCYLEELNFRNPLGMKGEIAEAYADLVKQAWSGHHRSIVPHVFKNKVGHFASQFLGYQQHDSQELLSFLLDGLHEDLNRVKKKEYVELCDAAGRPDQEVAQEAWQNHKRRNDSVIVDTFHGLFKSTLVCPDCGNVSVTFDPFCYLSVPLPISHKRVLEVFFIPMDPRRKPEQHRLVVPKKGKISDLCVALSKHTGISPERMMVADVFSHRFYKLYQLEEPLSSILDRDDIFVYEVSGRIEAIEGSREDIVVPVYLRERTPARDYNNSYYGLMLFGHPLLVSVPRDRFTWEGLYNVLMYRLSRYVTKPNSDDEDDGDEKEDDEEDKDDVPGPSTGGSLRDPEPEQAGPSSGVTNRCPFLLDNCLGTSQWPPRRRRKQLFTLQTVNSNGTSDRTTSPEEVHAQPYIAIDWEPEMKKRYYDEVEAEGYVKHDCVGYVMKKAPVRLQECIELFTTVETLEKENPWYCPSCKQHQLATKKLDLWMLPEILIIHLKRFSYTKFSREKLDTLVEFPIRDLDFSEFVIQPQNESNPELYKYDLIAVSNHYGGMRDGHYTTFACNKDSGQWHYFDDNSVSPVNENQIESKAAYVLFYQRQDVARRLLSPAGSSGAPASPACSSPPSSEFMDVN
UniProt Q9BZM6: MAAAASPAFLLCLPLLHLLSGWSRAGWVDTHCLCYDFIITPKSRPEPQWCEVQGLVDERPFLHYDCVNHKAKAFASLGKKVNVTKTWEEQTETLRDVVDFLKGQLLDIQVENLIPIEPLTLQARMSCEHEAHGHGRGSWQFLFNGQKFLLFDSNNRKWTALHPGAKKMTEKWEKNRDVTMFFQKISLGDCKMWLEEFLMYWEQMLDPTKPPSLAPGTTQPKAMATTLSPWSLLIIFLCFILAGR

The list shows a part of the results.

Compound in the assay: Cc1cc(SCc2sc(-c3ccc(C(F)(F)F)cc3)nc2C)ccc1OCC(=O)O
In words: log2 fold change, soluble protein after heating vs DMSO (PISA); higher = thermal stabilisation; K562 cells, 10 uM, 30 min; active = over 0.2 and 3.5 SD of the protein, either way, in both replicates (recomputed). Summed up: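 Aliquots of K562 cells (2×10^6 cells/mL) treated with 10 μM compound for 30 min were heated for 3 min over 48°C-58°C. After pooling and extraction in PBS with 0.5% NP-40 at 4°C, soluble protein from a 21,000xg, 90 min spin was quantified by TMTpro 16plex LC-MS/MS with channel sums equalised. Thermal stability is expressed against control samples, from duplicates, as a log2 fold change.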
As for UNC5B (UniProt Q8IZJ1), the log2 fold change was inactive: 0.089.

On to UNG (UniProt P13051), for which the log2 fold change was inactive: -0.065.

For the target UFM1 isoform 2 (UniProt P61960), the log2 fold change was inactive: 0.063.

For the target USP54 (UniProt Q70EL1), the log2 fold change is inactive: -0.021.

As to UMAD1 (UniProt C9J7I0), the log2 fold change was inactive: -0.172.

Turning to USP12 (UniProt O75317), the log2 fold change was inactive: -0.134.

In the case of UBQLN3 (UniProt Q9H347), the log2 fold change was inactive: 0.043.

Take UBXN8 (UniProt O00124): the log2 fold change was inactive: -0.101.

With USP4 (UniProt Q13107), the log2 fold change was inactive: -0.023.

For UBQLN1 isoform 2 (UniProt Q9UMX0), the log2 fold change is inactive: 0.005.

With USP11 (UniProt P51784), the log2 fold change is inactive: 0.028.

USP16 (UniProt Q9Y5T5): the log2 fold change was inactive: 0.045.

For UTP23 (UniProt Q9BRU9), the log2 fold change is inactive: 0.087.

With USP27X (UniProt A6NNY8), the log2 fold change is inactive: -0.049.

Take ULBP1 (UniProt Q9BZM6): the log2 fold change was inactive: 0.014.

As to USP33 (UniProt Q8TEY7), the log2 fold change is inactive: 0.184.

Take UBR1 (UniProt Q8IWV7): the log2 fold change is inactive: -0.276.
